Test results as given in article PMC6160451.
Results are given in words; binding and its absence hold for the method and conditions named. Binding seen in cells or lysates may run through a third protein. Some results given as binding are weak or reduced against the parent protein; the word gives no strength. Sequences can lack the tags named with a protein.

By UniProt entry, the sequences of proteins in these tests, tags left out.
UniProt Q8N2Y8: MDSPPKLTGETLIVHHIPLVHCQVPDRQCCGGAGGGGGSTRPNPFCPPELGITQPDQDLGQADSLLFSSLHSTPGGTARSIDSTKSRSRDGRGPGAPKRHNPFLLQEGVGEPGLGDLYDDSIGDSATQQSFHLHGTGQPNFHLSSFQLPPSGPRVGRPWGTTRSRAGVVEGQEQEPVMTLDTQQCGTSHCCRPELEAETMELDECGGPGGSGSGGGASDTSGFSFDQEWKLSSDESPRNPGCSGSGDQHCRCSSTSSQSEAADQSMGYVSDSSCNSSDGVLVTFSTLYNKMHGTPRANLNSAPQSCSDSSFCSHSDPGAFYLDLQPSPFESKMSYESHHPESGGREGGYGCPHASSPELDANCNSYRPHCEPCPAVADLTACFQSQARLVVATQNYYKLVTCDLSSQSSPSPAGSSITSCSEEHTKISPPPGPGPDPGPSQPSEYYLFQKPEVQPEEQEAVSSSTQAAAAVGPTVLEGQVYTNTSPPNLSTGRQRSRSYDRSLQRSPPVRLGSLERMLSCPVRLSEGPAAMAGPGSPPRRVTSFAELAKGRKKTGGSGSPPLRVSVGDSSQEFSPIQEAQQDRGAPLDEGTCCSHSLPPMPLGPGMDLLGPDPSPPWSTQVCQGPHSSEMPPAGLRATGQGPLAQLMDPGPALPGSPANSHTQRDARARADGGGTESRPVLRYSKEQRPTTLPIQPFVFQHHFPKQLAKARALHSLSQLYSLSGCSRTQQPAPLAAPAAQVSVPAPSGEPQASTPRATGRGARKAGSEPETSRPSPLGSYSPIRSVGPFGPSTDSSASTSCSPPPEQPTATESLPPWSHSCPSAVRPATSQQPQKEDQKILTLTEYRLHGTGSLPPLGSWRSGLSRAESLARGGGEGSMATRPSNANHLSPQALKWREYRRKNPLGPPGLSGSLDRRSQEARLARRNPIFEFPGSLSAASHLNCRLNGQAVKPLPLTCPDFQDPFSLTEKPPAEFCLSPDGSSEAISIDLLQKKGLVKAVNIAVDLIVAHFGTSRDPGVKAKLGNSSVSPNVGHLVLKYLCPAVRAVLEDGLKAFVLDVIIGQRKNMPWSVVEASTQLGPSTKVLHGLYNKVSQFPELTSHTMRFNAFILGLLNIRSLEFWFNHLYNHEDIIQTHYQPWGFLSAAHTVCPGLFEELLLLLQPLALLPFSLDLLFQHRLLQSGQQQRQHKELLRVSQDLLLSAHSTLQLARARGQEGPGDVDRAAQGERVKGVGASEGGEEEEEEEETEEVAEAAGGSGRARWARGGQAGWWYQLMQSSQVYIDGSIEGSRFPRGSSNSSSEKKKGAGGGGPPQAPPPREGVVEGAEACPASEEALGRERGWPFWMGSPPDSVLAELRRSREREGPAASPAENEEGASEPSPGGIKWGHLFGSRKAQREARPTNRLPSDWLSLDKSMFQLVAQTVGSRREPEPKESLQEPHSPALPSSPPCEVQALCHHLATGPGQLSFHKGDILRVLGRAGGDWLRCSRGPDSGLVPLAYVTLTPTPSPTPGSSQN

Biological target: T1, GST-AP4B1 appendage (human) (UniProt Q9Y6B7)
T1 sequence: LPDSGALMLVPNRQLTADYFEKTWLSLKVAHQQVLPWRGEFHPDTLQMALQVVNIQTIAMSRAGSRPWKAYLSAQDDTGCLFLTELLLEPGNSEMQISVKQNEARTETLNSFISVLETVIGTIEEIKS
Assay: pull-down; 50 µg GST fusion on glutathione sepharose 4B, cytosol of HeLa cells stably expressing GFP-RUSC2 or EGFP, 20 mM HEPES pH 7.5, 150 mM NaCl, 2 mM DTT, 1 h at 4 °C, washes with 0.5% NP-40, Western blot; only the target purified

## GFP-RUSC2 (from UniProt Q8N2Y8 1-1516)
  binding: binds
